Assay: Solubility of curcumin in solvents replacing water (optimized solving method)
Format: physicochemical
Method: First of all, even when a cell group can be stained, staining unevenness occurs, and it is therefore difficult to acquire an image of a uniformly stained living body. […] Curcumin, in particular, is solved by about 5% in a 100% glycerol liquid or a 50%-glycerol and 50%-ethanol mixture liquid. Therefore, the 5%-curcumin solution is diluted and used in the living body staining. Specifically, the 5% solution was stored as a stock liquid, and the stock liquid was diluted with a physiological saline solution by a factor ranging from 10 to 1000, and the resultant liquid was used to stain a living body. The optimized solving method allowed a high-definition cell image shown below to be obtained.

In the case of `COc1cc(/C=C/C(=O)CC(=O)/C=C/c2ccc(O)c(OC)c2)ccc1O` [curcumin dye, curcumin], the “amount solved (solubility)” value (in a 50%-glycerol and 50%-ethanol mixture liquid) is reported as “about 5%” and the “amount solved (solubility)” value (in a 100% glycerol liquid) is reported as “about 5%”.

Reference: US11140318B2, “Laser endoscope device” (Mie University, priority 2016, dated 2021)
